The values that follow come from PubChem BioAssay AID248 (DTP/NCI, 2004).

For the experiment, the system named is L1210 leukemia ip in BDF1 mice, survival T/C. The experiment is described as follows: NCI In Vivo Anticancer Drug Screen. Data for tumor model L1210 Leukemia (intraperitoneal) in B6D2F1 (BDF1) mice. Particulars: T/C endpoint: mean survival time, higher T/C = longer survival.

The list does not hold the whole screen: it is rich in T/C values a quarter to a half above the control, in often repeated tests (any T/C) and in doses without a T/C. Further doses and runs are listed elsewhere. T/C gives the treated animals as a percentage of the vehicle group. Some entries give survivors of the animals treated and no T/C: the source files T/C as zero there, which appears to mark a toxic dose or a test without result, not a measured value. Some doses without a T/C left all or most animals alive at the check, yet need not have been tolerated: survival well below the control is almost never listed, so the zero probably covers shortened survival too. Survivors were counted at the toxicity check, usually on the fifth day, unless a day is given; later deaths do not show. Schedules are NCI's codes, read here as Q, the interval in days (D) or hours (H), X, the number of doses. For survival time, the PubChem record calls one and a half times the control and up active, and a quarter to a half above the control has no call in these data; cut-offs in other NCI protocols can differ.

As to `COc1cc(C=Nc2ccc(Cl)cc2)ccc1OC(=O)c1ccccc1`, the survivor count (dose: 400.0 mg/kg/injection, schedule: Q04DX002 (ip), vehicle: saline with Tween-80) is listed as 3 of 3.
As to `C[N+]1(C)CC2CCCCC1C2O` (centres undefined), the survivor count (dose: 300.0 mg/kg/injection, schedule: Q01DX001 (ip), vehicle: saline) is reported as 1 of 6.
For `Clc1ccc2c(c1)C1c3ccccc3C2C2c3ccccc3C1c1ccccc12` (centres undefined), the survivor count (dose: 100.0 mg/kg/injection, schedule: Q04DX002 (ip), vehicle: Klucel (hydroxypropylcellulose) (HPC)) was 3 of 3.
For the compound `COC1OC2COC(c3ccccc3)OC2C(=O)C1OS(=O)(=O)c1ccc(C)cc1` (centres undefined), where the note is “dose: 100.0 mg/kg/injection, schedule: Q04DX003 (ip), vehicle: saline with Tween-80”, the survivor count is 6 of 6.
In the case of `O=C1C=CC(=Nc2ccc3c(c2)C(Br)c2ccccc2-3)O1` (centres undefined), the survivor count is reported as 3 of 6 (dose: 18.0 mg/kg/injection, schedule: Q01DX009 (ip), vehicle: saline); 1 of 6 (dose: 25.0 mg/kg/injection, schedule: Q01DX001 (ip), vehicle: acetone); 3 of 6 (dose: 28.0 mg/kg/injection, schedule: Q04DX003 (ip), vehicle: saline); 1 of 6 (dose: 40.0 mg/kg/injection, schedule: Q04DX003 (ip), vehicle: saline); 0 of 6 (dose: 50.0 mg/kg/injection, schedule: Q01DX001 (ip), vehicle: acetone).
With `CC(=O)n1cc(F)c(=O)[nH]c1=O`, the T/C is 136 % of control (dose: 4.8 mg/kg/injection, schedule: Q01DX009 (ip), vehicle: saline); 133 % of control (dose: 6.25 mg/kg/injection, schedule: Q01DX009 (ip), vehicle: saline); 146 % of control (dose: 7.2 mg/kg/injection, schedule: Q01DX009 (ip), vehicle: saline); 138 % of control (dose: 12.5 mg/kg/injection, schedule: Q01DX009 (ip), vehicle: saline); 139 % of control (dose: 25.0 mg/kg/injection, schedule: Q04DX003 (ip), vehicle: saline); 128 % of control (dose: 50.0 mg/kg/injection, schedule: Q01DX009 (ip), vehicle: saline). Moreover, the T/C runs as follows: (dose: 50.0 mg/kg/injection, schedule: Q04DX003 (ip), vehicle: saline with Tween-80) 144 % of control; (dose: 75.0 mg/kg/injection, schedule: Q01DX001 (ip), vehicle: saline) 134 % of control. In addition, the survivor count runs as follows: (dose: 200.0 mg/kg/injection, schedule: Q04DX003 (ip), vehicle: saline with Tween-80) 6 of 6; (dose: 400.0 mg/kg/injection, schedule: Q04DX003 (ip), vehicle: saline with Tween-80) 6 of 6.
